These are literature values, as cited in US20080255097A1, “Methods for the Treatment of Substance Abuse and Dependence” (priority 2005, published 2008).

The structures appear in SMILES notation.

Regarding `CC[C@H](OC(C)=O)C(C[C@H](C)N(C)C)(c1ccccc1)c1ccccc1` [levo-alphacetylmethadol], the duration of action (in vivo) is 48 to 72 h. On to `O=C1CC[C@@]2(O)[C@H]3Cc4ccc(O)c5c4[C@@]2(CCN3CC2CC2)[C@H]1O5` [Naltrexone, 17-(cyclopropylmethyl)-4,5α-epoxy-3,14-dihydroxymorphinan-6-one], for which, under “single oral dose”, the “duration of block of injected heroine effects” value is 48 h.
